Test results from PubChem BioAssay AID1688 (National Center for Advancing Translational Sciences (NCATS), 2009).
The whole screen tested about 220,000 compounds, of which about 2,400 (1.1%) were called active. The inconclusive results got no clear call from the source; some entries with a clear call stand among them for comparison. Calls come from the whole dose curve; as a rule, active = well fitted inhibition curve with a large enough effect; inconclusive = small, poorly fitted or top-dose-only effect, or effect the other way; inactive = no such curve, though single readings can be large or run the other way. Potencies beside an inconclusive call are fits to weak or partial responses and may not hold up.

Test: qHTS Multiplex Assay to Identify Dual Action Probes in a Cell Model of Huntington: Aggregate Formation (GFP); note: nearly all actives have a fitted effect of over 60% in size
Conditions: PC12 HttQ103-GFP aggregates, Acumen cytometry, 40 h; activity change, negative = inhibition: at 46.1 µM (top of the series) unless noted
Excerpt: NIH Chemical Genomics Center [NCGC]
NIH Molecular Libraries Probe Production centers Network [MLPCN]
Assay Submitter (PI): Wei Zheng
Huntington's disease is a neurodegenerative disorder caused by a trinucleotide repeat expansion in Exon 1 of the Huntingtin gene. The CAG trinucleotide encodes glutamine and polyglutamine expansions cause cell death in selective areas of the brain. Huntington polyglutamine repeats have the tendency to form aggregates which are observable in later stages of the disease. The exact nature of the aggregates, whether toxic, protective, or insignificant, is unclear.
A stable PC12 cell line containing a gene fusion of Exon 1 of the Huntingtin gene linked to GFP under the control of the inducible ecdysone promoter were used as the cell-based model of Huntington Disease for high throughput screening. Exon 1 of the Huntingtin gene contained an expansion of 103 polyglutamines (Q103) which, when expressed, caused cell death and distinct, bright GFP aggregates. The amount of cell death and the size and intensity of GFP aggregates increased over time and induction level. The cell death were quantified with a measurement of ATP content in the cells. A maximal 40-50% of cell death was observed when the Huntington gene was induced in this cell line.
We optimized this assay in a homogeneous 1536 well format. A quantitative high throughput screen (qHTS) was conducted on the PC12 cells which were induced to express the toxic fusion construct. Small molecules which reduced aggregate formation were identified bu using a laser scanning cytometer calibrated to detect the aggregates in cell lysates.
PC12 cells stably containing a construct with an ecdysone inducible promoter expressing GFP fused to the exon 1 of HTTQ103 (Huntington protein which containing a 103 ployglutamine expansion) were used.
NCGC Assay Protocol Summary:
Sequence, Parameter, Description
1, Reagent, 5 uL 1500 cells/well 1536 TC treated White clear bottom plate
2, Compound, 23 nL Tebufenozide inducer (100 nM final) to all columns
3, Compound, 23 nL 40 uM to 0.5 nM Libraries
5, Reagent, 5 ul ATPLite cell death assay reagent
6, Detector, Aggregate quantitation by Acumen Explorer
Media consisted of phenol red free DMEM + 5% equine serum (Hyclone # SH30072.03 ), 5% supplemented Bovine Calf Serum (Hyclone # SH30074.03 ), 1x pen/strep, no G418
Acumen Explorer was used to quantitate GFP aggregates using the following criteria: […] laser excitation, 500-530 nm emission, the PMT was set at a voltage of 450 volts, and objects ranging in size of […] in size having a signal of 6 STDEV above background were collected.
Control columns: 1 = DMSO, 2= 2 uM teb dilns (1:1), 4 = 100 nM Teb inducer. Sample columns received 100 nM Teb.
% is set by controls: 0 for no effect and ±100 for the full control effect; potency is the fitted concentration of half-maximal effect.

SMILES	Potency	activity change, negative = inhibition
Cc1cccc(C)c1N=C1NN=C(c2ccccc2F)CS1	inconclusive: 25.1 µM [inhibitor, single point]	
O=C(c1ccc(S(=O)(=O)Cc2ccccc2Cl)c([N+](=O)[O-])c1)N1CCN(c2ccccn2)CC1	active: 15.8 µM	
O=[N+]([O-])c1cc(Br)cc(C=Nc2ccc3c(c2)OCO3)c1O		inactive: 0% [at 9.22 µM]
O=S(=O)(NCCSCc1ccc(Cl)cc1Cl)c1ccc2c(c1)OCCO2	inconclusive: 35.5 µM [inhibitor, single point]	
COc1ccccc1Nc1ncnc2ccc(C)cc12	inconclusive: 11.2 µM [inhibitor, partial curve]	
CCCSc1nsc(SCCC)c1C(N)=O	inconclusive: 126 µM [activator, partial curve]	
Cc1nnc(NC(=O)Nc2ccc(Cl)c(Cl)c2)s1	inconclusive: 4.47 µM [inhibitor, partial curve]	
Cc1cc(C)nc(/N=C(\N)N2CCCCCC2)n1	inconclusive: 0.562 µM [activator, full curve, poor fit]	
Cc1ccc(C)c(Nc2ncnc(N)c2[N+](=O)[O-])c1	inactive	
CCCN(CCC)c1nc2ccccc2nc1C(C#N)C(=O)OC(C)COC (stereo unspecified)	inconclusive: 0.562 µM [activator, partial curve, poor fit]	
Cc1c(Cl)cccc1NC(=O)Cn1nnc(C(=O)NCc2cccs2)c1N	inconclusive: 1.58 µM [activator, partial curve]	
O=C(NCCCn1ccnc1)C(=O)NCC1OCCN1S(=O)(=O)c1cc(F)ccc1F (stereo unspecified)		inactive: 8.85% [at 9.22 µM]
O=c1cnn(-c2ccccc2)c(-c2ccccc2)c1	inconclusive: 17.8 µM [inhibitor, single point]	
Cc1ccc2c(C)nc(Nc3nc(CSc4nc5ccccc5[nH]4)cc(=O)[nH]3)nc2c1	inconclusive: 35.5 µM [inhibitor, single point]	
CCOc1ccc(NC(=O)CN2CCN(CC(=O)c3ccc(OCC)cc3)CC2)cc1	inactive	
CCNC(=O)CSc1nnc(C2CC2)n1-c1ccccc1	inconclusive: 6.31 µM [inhibitor, single point]	
COc1ccc(NC(=O)c2ccc3c(SCC(=O)O)c4c(nc3c2)CCCC4)c(OC)c1	inactive	
Cc1ccc2c(c1)N=C(c1ccc(F)cc1)CO2	inconclusive: 11.2 µM [activator, partial curve]	
CCOc1ccccc1NC(=O)c1cc(C(=O)c2cc(Br)ccc2O)coc1=N	inconclusive: 11.2 µM [inhibitor, partial curve]	
CCOC(=O)c1c(/N=C/c2cc([N+](=O)[O-])ccc2O)sc(C)c1C	inconclusive: 22.4 µM [inhibitor, single point]	
O=S(=O)(/N=C(/c1ccccc1)N1CCCCC1)c1ccccc1	inconclusive: 2.51 µM [activator, partial curve]	
O=C(CNC(=O)c1ccco1)OCc1ccc(Cl)cc1	inactive	
CN(C)CCC=C1c2ccccc2CCc2ccccc21	inactive	
O=C1NCC(c2ccccc2)C1C(=O)N/N=C/c1ccc(Cl)s1 (stereo unspecified)	active: 0.112 µM	

SMILES	Potency	activity change, negative = inhibition
COc1cccc(/C=N/NC(=O)C(C)n2nc(C)c([N+](=O)[O-])c2C)c1O (stereo unspecified)	active: 15.8 µM	
CCc1ccc(NC(=O)Cn2nnc(C(=O)NCc3cccs3)c2N)cc1	inconclusive: 1.58 µM [activator, partial curve]	
COc1cc(CC(=O)Nc2sccc2C(N)=O)cc(OC)c1OC	inconclusive: 12.6 µM [activator, partial curve, poor fit]	
CCCN1CCC(NC(=S)Nc2ccc([N+](=O)[O-])cc2)CC1	inactive	
COc1cccc(N2CCN(c3ncnc4c3[nH]c3ccccc34)CC2C)c1 (stereo unspecified)	active: 11.2 µM	
Cc1ccccc1N1CCN(Cc2c[nH]c3ccccc23)CC1	active: 22.4 µM	
O=C(OCC(=O)N1CCc2ccccc21)c1cncc(Br)c1	inconclusive: 5.62 µM [inhibitor, single point]	
Clc1ccc(-c2csc3ncnc(N4CCc5ccccc5C4)c23)cc1	inconclusive: 35.5 µM [inhibitor, partial curve]	
Cc1cc([N+](=O)[O-])nn1CCCC(=O)Nc1cccnc1Cl	inconclusive: 1.12 µM [inhibitor, single point]	
COc1ccc(C(=O)/C=C/Nc2cccc(C)n2)cc1OC	inconclusive: 3.16 µM [inhibitor, partial curve]	
CN(C)C(=O)C1CCC(=O)N1Cc1cccs1 (stereo unspecified)	inactive	
O=C(c1ccc(CS(=O)(=O)c2ccc(Br)cc2)o1)N1CCN(C2CCCCC2)CC1	inactive	
CCN(CC)CCN(C)c1ccc(N2C(=O)C3CC=CCC3C2=O)cc1[N+](=O)[O-] (stereo unspecified)	inconclusive: 1.26 µM [inhibitor, single point]	
O=C(CSc1nnc(COc2ccccc2)n1Cc1ccco1)c1ccc(F)cc1	inconclusive: 3.16 µM [activator, partial curve]	
CCOc1ccccc1/C=N/NC(=O)c1cccc(S(=O)(=O)N(CC)CC)c1	inconclusive: 35.5 µM [inhibitor, single point]	
O=C(O)CC/C(=C\c1cccc(NC(=O)c2ccccc2Cl)c1)c1nc2ccccc2s1	inconclusive: 35.5 µM [inhibitor, single point]	
O=C(NC1CCCCC1)c1ccc(S(=O)(=O)NCc2cccnc2)cc1	inconclusive: 10 µM [inhibitor, partial curve]	
[O-]/C(=C(\C(=S)Nc1ccc(SC(F)F)cc1)[n+]1ccccc1)c1cc(Cl)ccc1Cl	inconclusive: 35.5 µM [inhibitor, single point]	
COc1ccc(Oc2nc(SC)nc3ccsc23)cc1	inconclusive: 10 µM [inhibitor, partial curve]	
O=C(CSc1nnc(NC(=O)C2CCCCC2)s1)NCc1ccco1	inactive	
CC(=O)Cc1cc2cc([N+](=O)[O-])ccc2oc1=O		inactive: 14.5% [at 9.22 µM]
CCC(=O)Nc1nc(-c2ccccc2)ns1	inconclusive: 20 µM [inhibitor, single point]	
O=C(/C=C/c1cn(-c2ccccc2)nc1-c1cccnc1)c1ccco1	inconclusive: 25.1 µM [inhibitor, single point]	
Cc1ccccc1CSCCC(=O)NCCc1ccccc1	inconclusive: 6.31 µM [activator, partial curve, poor fit]	

Reprinted at random: 5 entries already listed
SMILES	Potency	activity change, negative = inhibition
O=C(CSc1nnc(COc2ccccc2)n1Cc1ccco1)c1ccc(F)cc1	inconclusive: 3.16 µM [activator, partial curve]	
CCN(CC)CCN(C)c1ccc(N2C(=O)C3CC=CCC3C2=O)cc1[N+](=O)[O-] (stereo unspecified)	inconclusive: 1.26 µM [inhibitor, single point]	
Cc1cc([N+](=O)[O-])nn1CCCC(=O)Nc1cccnc1Cl	inconclusive: 1.12 µM [inhibitor, single point]	
CCCSc1nsc(SCCC)c1C(N)=O	inconclusive: 126 µM [activator, partial curve]	
CCOc1ccc(NC(=O)CN2CCN(CC(=O)c3ccc(OCC)cc3)CC2)cc1	inactive	

The list continues.

SMILES	Potency	activity change, negative = inhibition
COc1ccc(C2CC(C(F)(F)F)n3nc(C(=O)NCc4cn(C)nc4C)c(Cl)c3N2)cc1 (stereo unspecified)	inconclusive: 11.2 µM [inhibitor, single point]	
O=C(Nc1cccs1)NC1CCCC1	inactive	
O=C(NC(=S)Nc1ccc2c(c1)OCCO2)c1cccc2ccccc12	inconclusive: 12.6 µM [activator, single point]	
COC(=O)N/N=C/c1ccc(OS(=O)(=O)c2ccc(C)cc2)c(OC)c1	inconclusive: 11.2 µM [inhibitor, single point]	
CCc1ccc(OCC(O)CN2CCC(CN3C(=O)c4cccc5cccc(c45)C3=O)CC2)cc1 (stereo unspecified)	inconclusive: 3.16 µM [inhibitor, single point]	
Brc1ccc(C2=CC(c3cccs3)n3ncnc3N2)cc1 (stereo unspecified)	inconclusive: 35.5 µM [inhibitor, single point]	
CCC(COC(=O)Nc1cccc(C)c1C)NC(=O)OCC(C)C (stereo unspecified)	inconclusive: 3.98 µM [inhibitor, partial curve]	
COc1ccc(C2CC(c3cccs3)=NN2C(=O)CSc2nnnn2C)cc1OC (stereo unspecified)	inconclusive: 3.16 µM [activator, full curve]	
NS(=O)(=O)c1ccc(CCNC(=O)CN2CCC(Cc3ccccc3)CC2)cc1	inconclusive: 35.5 µM [activator, single point]	
Cc1cc(C)n2nc(SC(C)C(=O)Nc3ccc(Cl)cn3)nc2n1 (stereo unspecified)	inactive	
COc1cccc(-c2noc(N)c2C#N)c1	active: 11.2 µM	
Cc1cc(C)c(O)c(-c2cc(C(=O)Nc3ccc(S(=O)(=O)N4CCOCC4)cc3)[nH]n2)c1	active: 20 µM	
Cc1cc(C)c2nc(NNC(=O)c3ccc(S(=O)(=O)N4CCCCC4)cc3)sc2c1	inconclusive: 11.2 µM [inhibitor, single point]	
O=C1Nc2ccccc2/C1=C/C(=O)c1cccs1	inconclusive: 35.5 µM [inhibitor, single point]	
Cn1c(C(C#N)C(=O)c2sc3ccccc3c2Cl)nc2ccccc21 (stereo unspecified)	inactive	
NC(=O)CSc1nnc(Cn2cnc3ccccc32)o1	inconclusive: 5.62 µM [inhibitor, single point]	
N#C/C(=C\c1cccnc1)C(=O)Nc1ccccc1	inactive	
COc1ccc(C(=O)N(Cc2ccco2)C(C(=O)NC2CCCC2)c2ccc(O)cc2)cc1OC (stereo unspecified)	inactive	
COc1cccc2sc(N(CCCN(C)C)C(=O)C(c3ccccc3)c3ccccc3)nc12	inconclusive: 22.4 µM [inhibitor, single point]	
CNC(=O)c1cc(C(=O)c2ccc(C(F)(F)F)cc2F)c[nH]1	inconclusive: 12.6 µM [inhibitor, partial curve]	
Cc1cccc2cc(C(c3nnnn3Cc3ccccc3)N3CCN(C)CC3)c(=O)[nH]c12 (stereo unspecified)	inconclusive: 0.0891 µM [activator, full curve]	
Cc1ccc2c(c1)c(CC(=O)Nc1ccc(C)c(F)c1)c(C(=O)O)n2C	inactive	
NC(=O)C1CCN(C(=O)c2ccc(NC3=NC4CS(=O)(=O)CC4S3)cc2)CC1 (stereo unspecified)	inconclusive: 5.62 µM [inhibitor, single point]	
